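A panel of P. falciparum strains inside erythrocytes is exposed to compounds for three days, then a DNA-binding dye reports the amount of parasite DNA.
Each compound was titrated across a series from about 0.000037 to 29 µM.
The number is the fitted AC50, the concentration giving a half-maximal change in signal; a lower value means higher potency, whether the curve shows a decrease or an increase.
Calls follow the curve class and fit quality: every row here is inconclusive, covering signal-raising curves and weak, poorly fitted, partial or highest-dose-only inhibition curves.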

Values are in µM.
Every entry below has the call inconclusive.
Only part of the assay is shown, chiefly results filed as inconclusive.
A potency from a partial, single-point or poor curve is only a rough figure.
Some entries filed as inconclusive have a full curve.
The first word of each remark tells which way the curve ran; it can be opposite to the aim of the assay.

| # | Compound | tested on / at | Potency (µM) | curve as filed |
|---|---|---|---|---|
| 1 | `NC12CC3CC(CC(C3)C1)C2` | JCK | 11.22 | inhibitor, single point |
| 2 | `NC12CC3CC(CC(C3)C1)C2` | PC15 | 11.22 | inhibitor, single point |
| 3 | `NC12CC3CC(CC(C3)C1)C2` | CP237 | 3.548 | inhibitor, single point |
| 4 | `NC12CC3CC(CC(C3)C1)C2` | CP335 | 2.393 | inhibitor, single point |
| 5 | `NC12CC3CC(CC(C3)C1)C2` | CP297 | 3.381 | inhibitor, partial curve, poor fit |
| 6 | `NC12CC3CC(CC(C3)C1)C2` | GB4 | 4.256 | inhibitor, single point |
| 7 | `NC12CC3CC(CC(C3)C1)C2` | CP256 | 10 | inhibitor, single point |
| 8 | `NC12CC3CC(CC(C3)C1)C2` | 7G8 | 17.78 | inhibitor, single point |
| 9 | `CN1CCN2c3ncccc3Cc3ccccc3C2C1` (stereo not drawn) | GB4 | 4.256 | inhibitor, partial curve |
| 10 | `CN1CCN2c3ncccc3Cc3ccccc3C2C1` (stereo not drawn) | AS120 | 7.943 | inhibitor, partial curve |
| 11 | `CN1CCN2c3ncccc3Cc3ccccc3C2C1` (stereo not drawn) | W2 | 15.1 | inhibitor, single point |
| 12 | `CN1CCN2c3ncccc3Cc3ccccc3C2C1` (stereo not drawn) | CP194 | 16.94 | inhibitor, single point |
| 13 | `CN1CCN2c3ncccc3Cc3ccccc3C2C1` (stereo not drawn) | CP335 | 0.0005 | activator |
| 14 | `CN1CCN2c3ncccc3Cc3ccccc3C2C1` (stereo not drawn) | CP192 | 16.94 | inhibitor, single point |
| 15 | `CN1CCN2c3ncccc3Cc3ccccc3C2C1` (stereo not drawn) | AA1029 | 6.31 | inhibitor, partial curve, poor fit |
| 16 | `CN1CCN2c3ncccc3Cc3ccccc3C2C1` (stereo not drawn) | Dd2 | 12.59 | inhibitor, single point |
| 17 | `CN1CCN2c3ncccc3Cc3ccccc3C2C1` (stereo not drawn) | DIV14 | 6.746 | inhibitor, partial curve |
| 18 | `CN1CCN2c3ncccc3Cc3ccccc3C2C1` (stereo not drawn) | P93_24 | 11.22 | inhibitor, single point |
| 19 | `CN1CCN2c3ncccc3Cc3ccccc3C2C1` (stereo not drawn) | PAD | 8.912 | inhibitor, partial curve |
| 20 | `CN1CCN2c3ncccc3Cc3ccccc3C2C1` (stereo not drawn) | CP291 | 6.746 | inhibitor, partial curve, poor fit |
| 21 | `CN1CCN2c3ncccc3Cc3ccccc3C2C1` (stereo not drawn) | CP211 | 1.901 | inhibitor, single point |
| 22 | `CN1CCN2c3ncccc3Cc3ccccc3C2C1` (stereo not drawn) | N140 | 11.22 | inhibitor, single point |
| 23 | `CN1CCN2c3ncccc3Cc3ccccc3C2C1` (stereo not drawn) | ATS95 | 6.31 | inhibitor, partial curve |
| 24 | `CN1CCN2c3ncccc3Cc3ccccc3C2C1` (stereo not drawn) | CP203 | 16.94 | inhibitor, single point |
| 25 | `CN1CCN2c3ncccc3Cc3ccccc3C2C1` (stereo not drawn) | PC26 | 9.528 | inhibitor, partial curve |
| 26 | `CN1CCN2c3ncccc3Cc3ccccc3C2C1` (stereo not drawn) | DIV17 | 15.1 | inhibitor, single point |
| 27 | `NNc1nnc(NN)c2ccccc12` | CP215 | 4.776 | inhibitor, partial curve, poor fit |
| 28 | `NNc1nnc(NN)c2ccccc12` | CP201 | 0.0015 | activator, full curve |
| 29 | `Cn1c(=O)c2c(ncn2CCOC(=O)C(C)(C)Oc2ccc(Cl)cc2)n(C)c1=O` | CP217 | 3.548 | inhibitor, single point |
| 30 | `Cn1c(=O)c2c(ncn2CCOC(=O)C(C)(C)Oc2ccc(Cl)cc2)n(C)c1=O` | AS120 | 3.981 | inhibitor, single point |
| 31 | `Cn1c(=O)c2c(ncn2CCOC(=O)C(C)(C)Oc2ccc(Cl)cc2)n(C)c1=O` | CP238 | 1.413 | inhibitor, single point |
| 32 | `Cn1c(=O)c2c(ncn2CCOC(=O)C(C)(C)Oc2ccc(Cl)cc2)n(C)c1=O` | ATS95 | 3.162 | inhibitor, single point |
| 33 | `Cn1c(=O)c2c(ncn2CCOC(=O)C(C)(C)Oc2ccc(Cl)cc2)n(C)c1=O` | TAB165 | 3.981 | inhibitor, single point |
| 34 | `Cn1c(=O)c2c(ncn2CCOC(=O)C(C)(C)Oc2ccc(Cl)cc2)n(C)c1=O` | CP185 | 3.548 | inhibitor, single point |
| 35 | `Cn1c(=O)c2c(ncn2CCOC(=O)C(C)(C)Oc2ccc(Cl)cc2)n(C)c1=O` | parasite line B | 3.981 | inhibitor, single point |
| 36 | `Cn1c(=O)c2c(ncn2CCOC(=O)C(C)(C)Oc2ccc(Cl)cc2)n(C)c1=O` | ECU | 2.818 | inhibitor, single point |
| 37 | `Cn1c(=O)c2c(ncn2CCOC(=O)C(C)(C)Oc2ccc(Cl)cc2)n(C)c1=O` | P93_24 | 3.981 | inhibitor, single point |
| 38 | `Cn1c(=O)c2c(ncn2CCOC(=O)C(C)(C)Oc2ccc(Cl)cc2)n(C)c1=O` | ATS189 | 3.548 | inhibitor, single point |
| 39 | `Cn1c(=O)c2c(ncn2CCOC(=O)C(C)(C)Oc2ccc(Cl)cc2)n(C)c1=O` | CP256 | 2.512 | inhibitor, single point |
| 40 | `Cn1c(=O)c2c(ncn2CCOC(=O)C(C)(C)Oc2ccc(Cl)cc2)n(C)c1=O` | CP191 | 1.995 | inhibitor, single point |
| 41 | `Cn1c(=O)c2c(ncn2CCOC(=O)C(C)(C)Oc2ccc(Cl)cc2)n(C)c1=O` | CP252 | 3.548 | inhibitor, single point |
| 42 | `Cn1c(=O)c2c(ncn2CCOC(=O)C(C)(C)Oc2ccc(Cl)cc2)n(C)c1=O` | N140 | 1 | inhibitor, single point |
| 43 | `Cn1c(=O)c2c(ncn2CCOC(=O)C(C)(C)Oc2ccc(Cl)cc2)n(C)c1=O` | AA1029 | 3.981 | inhibitor, single point |
| 44 | `CCN(CC)CCC(=O)N1c2ccccc2Sc2ccc(Cl)cc21` | CP329 | 6.012 | inhibitor, partial curve, poor fit |
| 45 | `CCN(CC)CCC(=O)N1c2ccccc2Sc2ccc(Cl)cc21` | 3D7 | 6.31 | inhibitor, partial curve |

Once more, the final 3:

| Compound | tested on / at | Potency (µM) | curve as filed |
|---|---|---|---|
| `Cn1c(=O)c2c(ncn2CCOC(=O)C(C)(C)Oc2ccc(Cl)cc2)n(C)c1=O` | AA1029 | 3.981 | inhibitor, single point |
| `CCN(CC)CCC(=O)N1c2ccccc2Sc2ccc(Cl)cc21` | CP329 | 6.012 | inhibitor, partial curve, poor fit |
| `CCN(CC)CCC(=O)N1c2ccccc2Sc2ccc(Cl)cc21` | 3D7 | 6.31 | inhibitor, partial curve |

Source: PubChem BioAssay AID504749 (NCATS, 2011).